Measurements reported in article PMC11758950.
These are yes or no findings as the source states them, for the method shown. Binding seen in cells or lysates may run through a third protein. Some results given as binding are weak or reduced against the parent protein; the word gives no strength. Where a sequence is shown, tags or fusion partners need not be part of it.

T1: ELFN1-Venus (mouse) (UniProt Q8C8T7)
T1 sequence: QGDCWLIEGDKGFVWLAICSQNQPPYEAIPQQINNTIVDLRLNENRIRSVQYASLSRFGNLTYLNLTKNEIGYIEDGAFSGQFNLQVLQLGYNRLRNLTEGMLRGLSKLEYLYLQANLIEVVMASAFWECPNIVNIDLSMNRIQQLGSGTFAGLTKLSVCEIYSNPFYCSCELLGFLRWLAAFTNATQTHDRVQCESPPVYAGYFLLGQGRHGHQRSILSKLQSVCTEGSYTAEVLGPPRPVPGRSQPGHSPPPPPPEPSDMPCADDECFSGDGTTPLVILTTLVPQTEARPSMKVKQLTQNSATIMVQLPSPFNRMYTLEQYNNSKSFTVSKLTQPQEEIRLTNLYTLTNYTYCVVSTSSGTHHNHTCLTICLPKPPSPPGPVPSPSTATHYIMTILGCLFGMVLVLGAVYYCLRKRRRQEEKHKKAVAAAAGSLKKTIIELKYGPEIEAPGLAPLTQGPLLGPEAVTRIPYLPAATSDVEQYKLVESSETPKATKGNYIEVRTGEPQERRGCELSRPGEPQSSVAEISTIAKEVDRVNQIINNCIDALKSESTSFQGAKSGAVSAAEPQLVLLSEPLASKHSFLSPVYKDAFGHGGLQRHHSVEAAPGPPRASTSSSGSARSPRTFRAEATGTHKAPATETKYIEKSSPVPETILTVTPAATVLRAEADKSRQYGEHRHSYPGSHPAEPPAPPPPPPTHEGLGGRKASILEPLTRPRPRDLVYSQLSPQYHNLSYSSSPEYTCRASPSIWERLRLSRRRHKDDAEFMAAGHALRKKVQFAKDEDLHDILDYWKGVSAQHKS


Biological target: T1, ELFN1-Venus (mouse)
Test: co-IP; co-transfected HEK 293 T/17 cells (2.5 ug of each construct), 1% Triton-X lysis buffer; Protein G Sepharose beads with mouse GFP antibody, 1 h at 4 C, washed 3 times; blot with myc antibody

| Binder | binding |
| --- | --- |
| ELFN1Δ452-myc (domain or fragment, UniProt Q8C8T7 26-452) QGDCWLIEGDKGFVWLAICSQNQPPYEAIPQQINNTIVDLRLNENRIRSVQYASLSRFGNLTYLNLTKNEIGYIEDGAFSGQFNLQVLQLGYNRLRNLTEGMLRGLSKLEYLYLQANLIEVVMASAFWECPNIVNIDLSMNRIQQLGSGTFAGLTKLSVCEIYSNPFYCSCELLGFLRWLAAFTNATQTHDRVQCESPPVYAGYFLLGQGRHGHQRSILSKLQSVCTEGSYTAEVLGPPRPVPGRSQPGHSPPPPPPEPSDMPCADDECFSGDGTTPLVILTTLVPQTEARPSMKVKQLTQNSATIMVQLPSPFNRMYTLEQYNNSKSFTVSKLTQPQEEIRLTNLYTLTNYTYCVVSTSSGTHHNHTCLTICLPKPPSPPGPVPSPSTATHYIMTILGCLFGMVLVLGAVYYCLRKRRRQEEKHKK | binds |
| ELFN1Δ471-myc (domain or fragment, UniProt Q8C8T7 26-471) QGDCWLIEGDKGFVWLAICSQNQPPYEAIPQQINNTIVDLRLNENRIRSVQYASLSRFGNLTYLNLTKNEIGYIEDGAFSGQFNLQVLQLGYNRLRNLTEGMLRGLSKLEYLYLQANLIEVVMASAFWECPNIVNIDLSMNRIQQLGSGTFAGLTKLSVCEIYSNPFYCSCELLGFLRWLAAFTNATQTHDRVQCESPPVYAGYFLLGQGRHGHQRSILSKLQSVCTEGSYTAEVLGPPRPVPGRSQPGHSPPPPPPEPSDMPCADDECFSGDGTTPLVILTTLVPQTEARPSMKVKQLTQNSATIMVQLPSPFNRMYTLEQYNNSKSFTVSKLTQPQEEIRLTNLYTLTNYTYCVVSTSSGTHHNHTCLTICLPKPPSPPGPVPSPSTATHYIMTILGCLFGMVLVLGAVYYCLRKRRRQEEKHKKAVAAAAGSLKKTIIELKYG | binds |
| ELFN1Δ439-myc (domain or fragment, UniProt Q8C8T7 26-439) QGDCWLIEGDKGFVWLAICSQNQPPYEAIPQQINNTIVDLRLNENRIRSVQYASLSRFGNLTYLNLTKNEIGYIEDGAFSGQFNLQVLQLGYNRLRNLTEGMLRGLSKLEYLYLQANLIEVVMASAFWECPNIVNIDLSMNRIQQLGSGTFAGLTKLSVCEIYSNPFYCSCELLGFLRWLAAFTNATQTHDRVQCESPPVYAGYFLLGQGRHGHQRSILSKLQSVCTEGSYTAEVLGPPRPVPGRSQPGHSPPPPPPEPSDMPCADDECFSGDGTTPLVILTTLVPQTEARPSMKVKQLTQNSATIMVQLPSPFNRMYTLEQYNNSKSFTVSKLTQPQEEIRLTNLYTLTNYTYCVVSTSSGTHHNHTCLTICLPKPPSPPGPVPSPSTATHYIMTILGCLFGMVLVLGAVYYC | binds |

Results, then the binder that gave them:

| binding | Binder |
| --- | --- |
| binds | ELFN1Δ734-myc (domain or fragment, UniProt Q8C8T7 26-734) QGDCWLIEGDKGFVWLAICSQNQPPYEAIPQQINNTIVDLRLNENRIRSVQYASLSRFGNLTYLNLTKNEIGYIEDGAFSGQFNLQVLQLGYNRLRNLTEGMLRGLSKLEYLYLQANLIEVVMASAFWECPNIVNIDLSMNRIQQLGSGTFAGLTKLSVCEIYSNPFYCSCELLGFLRWLAAFTNATQTHDRVQCESPPVYAGYFLLGQGRHGHQRSILSKLQSVCTEGSYTAEVLGPPRPVPGRSQPGHSPPPPPPEPSDMPCADDECFSGDGTTPLVILTTLVPQTEARPSMKVKQLTQNSATIMVQLPSPFNRMYTLEQYNNSKSFTVSKLTQPQEEIRLTNLYTLTNYTYCVVSTSSGTHHNHTCLTICLPKPPSPPGPVPSPSTATHYIMTILGCLFGMVLVLGAVYYCLRKRRRQEEKHKKAVAAAAGSLKKTIIELKYGPEIEAPGLAPLTQGPLLGPEAVTRIPYLPAATSDVEQYKLVESSETPKATKGNYIEVRTGEPQERRGCELSRPGEPQSSVAEISTIAKEVDRVNQIINNCIDALKSESTSFQGAKSGAVSAAEPQLVLLSEPLASKHSFLSPVYKDAFGHGGLQRHHSVEAAPGPPRASTSSSGSARSPRTFRAEATGTHKAPATETKYIEKSSPVPETILTVTPAATVLRAEADKSRQYGEHRHSYPGSHPAEPPAPPPPPPTHEGLGGRKA |
| binds | ELFN1Δ536-myc (domain or fragment, UniProt Q8C8T7 26-536) QGDCWLIEGDKGFVWLAICSQNQPPYEAIPQQINNTIVDLRLNENRIRSVQYASLSRFGNLTYLNLTKNEIGYIEDGAFSGQFNLQVLQLGYNRLRNLTEGMLRGLSKLEYLYLQANLIEVVMASAFWECPNIVNIDLSMNRIQQLGSGTFAGLTKLSVCEIYSNPFYCSCELLGFLRWLAAFTNATQTHDRVQCESPPVYAGYFLLGQGRHGHQRSILSKLQSVCTEGSYTAEVLGPPRPVPGRSQPGHSPPPPPPEPSDMPCADDECFSGDGTTPLVILTTLVPQTEARPSMKVKQLTQNSATIMVQLPSPFNRMYTLEQYNNSKSFTVSKLTQPQEEIRLTNLYTLTNYTYCVVSTSSGTHHNHTCLTICLPKPPSPPGPVPSPSTATHYIMTILGCLFGMVLVLGAVYYCLRKRRRQEEKHKKAVAAAAGSLKKTIIELKYGPEIEAPGLAPLTQGPLLGPEAVTRIPYLPAATSDVEQYKLVESSETPKATKGNYIEVRTGEPQER |
| binds | ELFN1Δ501-myc (domain or fragment, UniProt Q8C8T7 26-501) QGDCWLIEGDKGFVWLAICSQNQPPYEAIPQQINNTIVDLRLNENRIRSVQYASLSRFGNLTYLNLTKNEIGYIEDGAFSGQFNLQVLQLGYNRLRNLTEGMLRGLSKLEYLYLQANLIEVVMASAFWECPNIVNIDLSMNRIQQLGSGTFAGLTKLSVCEIYSNPFYCSCELLGFLRWLAAFTNATQTHDRVQCESPPVYAGYFLLGQGRHGHQRSILSKLQSVCTEGSYTAEVLGPPRPVPGRSQPGHSPPPPPPEPSDMPCADDECFSGDGTTPLVILTTLVPQTEARPSMKVKQLTQNSATIMVQLPSPFNRMYTLEQYNNSKSFTVSKLTQPQEEIRLTNLYTLTNYTYCVVSTSSGTHHNHTCLTICLPKPPSPPGPVPSPSTATHYIMTILGCLFGMVLVLGAVYYCLRKRRRQEEKHKKAVAAAAGSLKKTIIELKYGPEIEAPGLAPLTQGPLLGPEAVTRIPYLPA |
| binds | ELFN1Δ600-myc (domain or fragment, UniProt Q8C8T7 26-600) QGDCWLIEGDKGFVWLAICSQNQPPYEAIPQQINNTIVDLRLNENRIRSVQYASLSRFGNLTYLNLTKNEIGYIEDGAFSGQFNLQVLQLGYNRLRNLTEGMLRGLSKLEYLYLQANLIEVVMASAFWECPNIVNIDLSMNRIQQLGSGTFAGLTKLSVCEIYSNPFYCSCELLGFLRWLAAFTNATQTHDRVQCESPPVYAGYFLLGQGRHGHQRSILSKLQSVCTEGSYTAEVLGPPRPVPGRSQPGHSPPPPPPEPSDMPCADDECFSGDGTTPLVILTTLVPQTEARPSMKVKQLTQNSATIMVQLPSPFNRMYTLEQYNNSKSFTVSKLTQPQEEIRLTNLYTLTNYTYCVVSTSSGTHHNHTCLTICLPKPPSPPGPVPSPSTATHYIMTILGCLFGMVLVLGAVYYCLRKRRRQEEKHKKAVAAAAGSLKKTIIELKYGPEIEAPGLAPLTQGPLLGPEAVTRIPYLPAATSDVEQYKLVESSETPKATKGNYIEVRTGEPQERRGCELSRPGEPQSSVAEISTIAKEVDRVNQIINNCIDALKSESTSFQGAKSGAVSAAEPQLVLL |
